# Assay results as given in PubChem BioAssay AID2685 (National Center for Advancing Translational Sciences (NCATS), 2010).
# The whole screen tested about 320,000 compounds, of which about 2,100 (0.66%) were called active. The inconclusive results got no clear call from the source; some entries with a clear call stand among them for comparison. Calls follow the shape of the dose curve; as a rule, active = well fitted inhibition curve with a large enough effect in the signal ratio, with a control signal flat (not every such curve was filed as active); inconclusive = small, poorly fitted or top-dose-only effect, or effect the other way, or a change in a side signal; inactive = flat fitted curve, though single readings scatter; the % refers to the signal ratio. A potency beside an inconclusive call is a rough fit, not a confirmed value.
# Test: qHTS Assay for Lipid Storage Modulators in Drosophila S3 Cells
# Conditions: BODIPY lipid droplet fluorescence, 18-24 h, cells fed with added oleic acid; lipid storage change, negative = inhibition: at 46.1 µM (top of the series) unless noted
# Summary of the method: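 Drosophila S3 cells loaded with oleic acid (400 uM, as added) and compounds at several concentrations; lipid droplets imaged by 488-nm laser-scanning cytometry, 500–530 nm intensity and object ratio to cell channel. Percent activity normalized to 20 uM Triacsin C.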
# % is scaled to controls: 0 for no effect and ±100 for the full control effect; potency is read from the fitted curve at half-maximal effect.
SMILES,"lipid storage change, negative = inhibition",Potency,outcome
Cc1ccc(CN2CCN(Cc3cnn(-c4ccc(F)cc4)c3)CC2CCO)o1 (stereo not drawn),inconclusive: 8.85%,,
COc1ccc(N2CCN(S(=O)(=O)c3c(C)n(C)c(=O)n(C)c3=O)CC2)cc1,inconclusive: -1.16%,,
CCOc1ccc(NC(=S)N/N=C(\C)Cc2ccc(OC)cc2)cc1,inconclusive: -68.7%,,
CC(C)(O)C#Cc1ccc(C(=O)N2CCC(C(N)=O)(N3CCCCC3)CC2)o1,,"inconclusive: 9.2 µM [activator, partial curve]",
CC(OC(=O)c1oc2ccccc2c1COc1ccccc1)C(=O)NC(N)=O (stereo not drawn),inconclusive: 2.93%,,
O=C(Nc1nn(Cc2ccc(Cl)cc2)cc1Br)c1ccc(COc2ccccc2Cl)o1,,"inconclusive: 8.2 µM [activator, partial curve]",
COc1ccc(N=C2C(=O)Nc3ccccc32)cc1,inconclusive: 3.34%,,
CC(C)(C)OC(=O)NCCCCCc1nnc(SCc2ccccc2F)o1,inconclusive: 2.06%,,
O=C(O)CC(NC(=O)OCc1ccccc1)c1ccccc1 (stereo not drawn),inconclusive: -63%,,
Cc1ccc(OCCn2cnc(Cl)c2Cl)cc1,inconclusive: -1.12%,,
COc1ccc(S(=O)(=O)N2CCCCC2)cc1NC(=O)c1cccnc1SC,inconclusive: -28.9%,,
Cc1ccc(SCC(=O)NC2CCS(=O)(=O)C2)cc1C (stereo not drawn),inconclusive: 3.82%,,
FC(F)(F)c1cc(Sc2ccccc2)nc(-c2ccccn2)n1,inconclusive: 6.34%,,
C=CCOc1cccc(C(=O)/C=C2/C(=O)Nc3ccccc32)c1,,"inconclusive: 29.1 µM [cytotoxic, single point]",
O=C(CSc1nnc(CNC(=O)c2ccccc2)o1)NCC1CCCO1 (stereo not drawn),inconclusive: -22.9%,,
CC(C)CC(=O)NC(=S)Nc1ccc(N2CCOCC2)c(Cl)c1,inconclusive: -41.8% [at 0.369 µM],,
O=C1CCC(C(=O)N(CCO)Cc2ccccc2)CN1CC1CCCCC1 (stereo not drawn),inconclusive: -0.106%,,
COc1ccc(/C(O)=C2/C(=O)C(=O)N(CCN3CCNCC3)C2c2cccc([N+](=O)[O-])c2)cc1 (stereo not drawn),inconclusive: 6.21%,,
O=C(c1ccc(F)cc1)N1CCC(C(=O)N2CCN(S(=O)(=O)c3cccc(F)c3)CC2)CC1,inconclusive: 27.2%,,
COC(=O)C1CC(O)CN1C(=O)Nc1cccc(C(F)(F)F)c1 (stereo not drawn),inconclusive: -49.2%,,
O=C(COC(=O)/C=C/c1cccc(C(F)(F)F)c1)NC1CCS(=O)(=O)C1 (stereo not drawn),,"inconclusive: 3.26 µM [activator, full curve]",
CCOC(=O)CC(NC(=O)c1ccco1)c1ccc(OC)cc1 (stereo not drawn),inconclusive: 128%,,
Cn1c(CNC(=O)c2ccco2)nnc1SCCOc1ccccc1,,"inconclusive: 7.31 µM [activator, partial curve]",
O=C1Nc2ccccc2C(=O)N2[C@H](c3ccc(F)cc3)[C@@H]3C(=O)N(Cc4ccccc4)C(=O)[C@@H]3[C@H]12,,"inconclusive: 6.51 µM [activator, single point]",
COC(=O)[C@@H](C)NC(=O)c1ccc2oc(CCc3ccccc3)nc2c1,inconclusive: -15.7%,,

SMILES,"lipid storage change, negative = inhibition",Potency,outcome
COc1ccc(CN(C)C(=O)CNC(=O)c2cccs2)c(OC)c1,inconclusive: -100%,,
N/C(CSc1ccccn1)=N\OCc1c(Cl)cccc1Cl,inconclusive: 10.4%,,
O=C(O)/C=C/c1cn(-c2ccccc2)nc1-c1ccc(-c2ccc([N+](=O)[O-])cc2)o1,inconclusive: -1.3%,,
COCCn1c(=O)[nH]c2cc(C(=O)N3CCN(c4ccccc4)CC3)ccc2c1=O,,"inconclusive: 3.26 µM [falling, full curve]",
N#CCC(=O)N/N=C/c1ccc(OCc2ccccc2)cc1,inconclusive: 34.4%,,
Cc1ccc(-n2c(SCC(=O)NCC3CCCO3)nc3c(c2=O)SCC3)cc1 (stereo not drawn),,"inconclusive: 5.17 µM [falling, partial curve]",
Cc1c(N=C2NC(=O)/C(=C/c3cccc([N+](=O)[O-])c3)S2)c(=O)n(-c2ccccc2)n1C,inconclusive: -42%,,
CCn1c(SCC(=O)OC(C)C)nnc1-c1ccccc1,inconclusive: -12%,,
COc1ccc(S[C@@H](CCN2CC[C@H](C)CCC2=O)c2ccccc2)cc1,,"inconclusive: 6.51 µM [activator, single point]",
CCN(CC)CCNCC(=O)N1c2ccccc2CCc2ccc(NC(=O)OC)cc21,inconclusive: 48.7%,,
COc1ccc(-c2nnc(-c3ccc(N(C)C)cc3)o2)cc1,inconclusive: 1.66%,,
CC(C)C(=O)NC(=S)Nc1ccc(CN2CCOCC2)cc1,inconclusive: -16.9%,,
O=C(NC1CCCCCC1)C(=S)NC1CCCCC1,inconclusive: -20.7%,,
COC(=O)c1c(NC(=O)c2ccco2)sc2c1C(C(=O)OC)CC2 (stereo not drawn),,"inconclusive: 2.91 µM [activator, full curve, poor fit]",
O=C(Cc1ccccc1)NCCSCc1ccccc1,inconclusive: -35.4%,,
COCc1cccc(C2=CC(=O)C[C@H](c3ccc(F)cc3)C2)c1,,"inconclusive: 0.0046 µM [activator, full curve, poor fit]",
CC1CCc2c(sc(NC(=O)CSc3ncn[nH]3)c2C#N)C1 (stereo not drawn),inconclusive: 7.17%,,
Cc1csc(Sc2ccc([N+](=O)[O-])cc2C(=O)OCC(=O)NC(=O)NC(C)(C)C)n1,,,inactive [at 46.1 µM]
CN(c1ccc(C(=O)Nc2ccc(F)cc2F)cc1)S(=O)(=O)c1ccccc1,,"inconclusive: 32.6 µM [activator, single point]",
NC(=O)C1CCN(CC(=O)Nc2cc(S(=O)(=O)N3CCOCC3)ccc2N2CCCC2)CC1,inconclusive: -0.369%,,
CCOc1ccc2nc(NC(=O)Nc3ccccc3)sc2c1,,"inconclusive: 9.2 µM [activator, partial curve]",
COc1ccc(N2CCN(C(=O)c3oc4ccccc4c3NC(=O)CCc3cc(OC)no3)CC2)cc1,inconclusive: -54.1%,,
COc1ccccc1NC(=O)c1ccc(-n2cncn2)nc1,inconclusive: 0.806%,,
COc1ccc(OCC2CNC(=O)O2)cc1 (stereo not drawn),inconclusive: -6.33%,,
COc1cccc(NC(=O)C(c2ccccc2)N2CCN(CC(=O)N3CCOCC3)CC2)c1 (stereo not drawn),inconclusive: 11.6%,,

# Whole records as entered above:
# `CC(C)C(=O)NC(=S)Nc1ccc(CN2CCOCC2)cc1` in the list: lipid storage change, negative = inhibition: inconclusive: -16.9%
# `COC(=O)c1c(NC(=O)c2ccco2)sc2c1C(C(=O)OC)CC2` (stereo not drawn) in the list: Potency: inconclusive: 2.91 µM [activator, full curve, poor fit]
# `N#CCC(=O)N/N=C/c1ccc(OCc2ccccc2)cc1` in the list: lipid storage change, negative = inhibition: inconclusive: 34.4%
# `COCc1cccc(C2=CC(=O)C[C@H](c3ccc(F)cc3)C2)c1` in the list: Potency: inconclusive: 0.0046 µM [activator, full curve, poor fit]

# (cont.)

SMILES,"lipid storage change, negative = inhibition",Potency,outcome
COc1ccc(/C=N/Nc2ncnc3c2[nH]c2ccc(C)cc23)c(OC)c1OC,inconclusive: -12.9%,,
COc1ccccc1OCC(=O)NCc1n[nH]c(=O)c2ccccc12,,"inconclusive: 0.92 µM [falling, full curve, poor fit]",
CCOC(=O)C(=CNc1nc(-c2ccccc2)c(C(=O)Nc2ccc(-c3ccccc3)cc2)s1)C(=O)OCC,,"inconclusive: 1.46 µM [activator, full curve]",
C=CCOCC(O)CS(=O)(=O)Cc1ccc(Cl)cc1 (stereo not drawn),,"inconclusive: 0.146 µM [cytotoxic, full curve, poor fit]",
CCOc1ccc(S(=O)(=O)N2CCCC(C(=O)NCc3cccnc3)C2)cc1C (stereo not drawn),,"inconclusive: 6.51 µM [activator, single point]",
CC1(C)CC(=O)C=C(CN2C(=O)c3ccccc3C2=O)C1=O,,"inconclusive: 6.51 µM [activator, single point]",
O=C(NCc1ccc2c(c1)OCO2)c1cccc(N2CCCC2=O)c1,inconclusive: -2.09%,,
Cc1ccc(S(=O)(=O)N2CCN(C(=O)c3n[nH]c4ccccc34)CC2)cc1,inconclusive: 2.43%,,
CC12CCC(=O)N1C(C(=O)OCC(=O)Nc1cccc(S(=O)(=O)N3CCCCCC3)c1)CS2 (stereo not drawn),inactive: 8.73%,,
COc1cccc(CNC(=O)C2CCC(CNS(=O)(=O)c3cccc4cccnc34)CC2)c1 (stereo not drawn),,"inconclusive: 0.731 µM [falling, partial curve, poor fit]",
NC(=O)c1ccnc2c(O)cccc12,inconclusive: 3.69%,,
Cc1cc2cc(CNC(=O)c3cccc([N+](=O)[O-])c3)ccc2[nH]1,,"inconclusive: 2.59 µM [activator, partial curve]",
CCN(CC)S(=O)(=O)c1ccc(Cl)c(NC(=O)COC(=O)c2cccn2C)c1,inconclusive: 45.5%,,
COc1ccc(N(CC(=O)O)S(=O)(=O)c2ccccc2[N+](=O)[O-])c(OC)c1,,"inconclusive: 4.11 µM [falling, single point]",
COc1ccc2cc(C(=O)C3CCCN(Cc4cccc(C)n4)C3)ccc2c1 (stereo not drawn),inconclusive: -12.6%,,
O=C(c1ccc(Br)o1)N(Cc1ccccc1)c1ccccn1,,"inconclusive: 1.84 µM [activator, partial curve]",
Cc1ccc2[nH]c3c(c2c1)CCc1cn[nH]c1-3,,"inconclusive: 0.326 µM [rising, partial curve, poor fit]",
O=C(c1ccccc1)C1CCc2occc2C1=O (stereo not drawn),,"inconclusive: 0.146 µM [falling, full curve, poor fit]",
COc1ccc(CNc2ccc3c(c2)ncn3-c2ccccc2OC)cc1,inconclusive: 27.2%,,
CC1(c2ccc(OCC(N)=O)cc2)NC(=O)NC1=O (stereo not drawn),,"inconclusive: 1.16 µM [activator, partial curve]",
Cc1ccc(S(=O)(=O)N2CCC(C(=O)OCC(=O)N3CC(C)CC(C)C3)CC2)cc1C (stereo not drawn),inconclusive: -39.7% [at 0.0737 µM],,
CCN1C(=O)[C@@H]2[C@@H](c3ccc(-c4ccc(OC)cc4)cc3)N3CCC[C@@]3(C(=O)OC)[C@@H]2C1=O,inconclusive: 10.7%,,
COc1cccc(CNC(=O)c2ccc(COc3ccccc3)cc2)c1,,"inconclusive: 29.1 µM [activator, single point]",
